Measurements reported in the supplement of paper PMC10849652.
Some of the results follow.

Protein sequences, listed by entry. Tags and fused reporters are not part of them. Lines headed by an entry give the natural chain unless they say otherwise; changes in a name come on top.
UniProt O43805: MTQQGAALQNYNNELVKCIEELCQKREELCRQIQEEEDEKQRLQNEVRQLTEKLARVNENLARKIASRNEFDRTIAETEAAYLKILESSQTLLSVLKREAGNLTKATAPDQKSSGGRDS
UniProt P11277, whole entry, looked up: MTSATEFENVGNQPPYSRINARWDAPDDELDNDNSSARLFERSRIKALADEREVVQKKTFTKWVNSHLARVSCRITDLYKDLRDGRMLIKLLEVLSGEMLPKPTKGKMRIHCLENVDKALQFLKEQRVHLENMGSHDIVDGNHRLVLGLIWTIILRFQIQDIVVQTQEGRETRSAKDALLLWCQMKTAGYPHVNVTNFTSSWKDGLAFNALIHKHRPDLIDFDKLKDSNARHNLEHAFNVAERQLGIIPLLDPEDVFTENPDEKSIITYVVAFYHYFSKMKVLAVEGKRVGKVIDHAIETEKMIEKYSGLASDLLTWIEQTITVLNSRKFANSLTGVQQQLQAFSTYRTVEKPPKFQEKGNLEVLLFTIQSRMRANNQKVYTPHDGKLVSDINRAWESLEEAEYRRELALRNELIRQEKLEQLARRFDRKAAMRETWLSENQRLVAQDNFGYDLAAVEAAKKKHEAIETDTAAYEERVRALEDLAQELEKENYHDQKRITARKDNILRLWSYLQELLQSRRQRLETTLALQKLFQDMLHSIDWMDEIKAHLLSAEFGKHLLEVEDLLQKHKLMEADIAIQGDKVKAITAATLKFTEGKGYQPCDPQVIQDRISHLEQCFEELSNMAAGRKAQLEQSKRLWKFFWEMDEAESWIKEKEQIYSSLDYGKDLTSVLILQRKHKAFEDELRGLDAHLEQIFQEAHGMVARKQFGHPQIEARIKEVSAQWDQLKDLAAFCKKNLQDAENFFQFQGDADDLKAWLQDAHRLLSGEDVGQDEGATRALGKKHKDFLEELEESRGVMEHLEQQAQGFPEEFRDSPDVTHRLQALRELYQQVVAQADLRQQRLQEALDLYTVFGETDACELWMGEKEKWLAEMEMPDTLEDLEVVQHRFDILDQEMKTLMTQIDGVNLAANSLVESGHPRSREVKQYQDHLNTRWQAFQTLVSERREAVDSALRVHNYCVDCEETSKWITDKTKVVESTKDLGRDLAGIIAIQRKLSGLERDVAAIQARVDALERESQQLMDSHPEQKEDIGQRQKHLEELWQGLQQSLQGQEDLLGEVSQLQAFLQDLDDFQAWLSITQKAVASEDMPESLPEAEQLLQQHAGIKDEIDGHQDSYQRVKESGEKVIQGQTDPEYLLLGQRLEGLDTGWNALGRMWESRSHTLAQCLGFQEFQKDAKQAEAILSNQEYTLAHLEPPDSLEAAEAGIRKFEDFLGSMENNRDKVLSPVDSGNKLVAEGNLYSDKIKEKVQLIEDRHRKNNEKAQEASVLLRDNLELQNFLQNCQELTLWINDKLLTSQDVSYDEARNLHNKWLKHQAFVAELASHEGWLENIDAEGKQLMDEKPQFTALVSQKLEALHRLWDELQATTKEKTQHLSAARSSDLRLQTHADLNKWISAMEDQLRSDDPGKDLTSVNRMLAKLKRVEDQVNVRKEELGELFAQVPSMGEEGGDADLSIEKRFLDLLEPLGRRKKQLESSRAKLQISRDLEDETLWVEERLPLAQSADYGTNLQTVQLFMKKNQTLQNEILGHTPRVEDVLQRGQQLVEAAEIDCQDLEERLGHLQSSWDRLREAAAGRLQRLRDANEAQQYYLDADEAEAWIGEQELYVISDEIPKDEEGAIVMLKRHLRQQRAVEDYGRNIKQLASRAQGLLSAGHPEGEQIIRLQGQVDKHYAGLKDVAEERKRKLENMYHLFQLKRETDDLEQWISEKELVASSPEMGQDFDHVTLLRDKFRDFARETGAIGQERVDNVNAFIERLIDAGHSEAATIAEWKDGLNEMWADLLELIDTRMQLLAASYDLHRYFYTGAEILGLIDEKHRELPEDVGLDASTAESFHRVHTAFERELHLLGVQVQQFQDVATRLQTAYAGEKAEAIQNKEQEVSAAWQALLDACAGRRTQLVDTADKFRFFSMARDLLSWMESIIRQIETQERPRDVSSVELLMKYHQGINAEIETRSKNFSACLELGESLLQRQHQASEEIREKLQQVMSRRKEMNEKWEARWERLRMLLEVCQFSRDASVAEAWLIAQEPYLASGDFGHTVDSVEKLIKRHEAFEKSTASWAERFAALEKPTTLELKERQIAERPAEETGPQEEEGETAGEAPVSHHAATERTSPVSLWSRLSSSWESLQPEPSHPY
UniProt Q9NUL3: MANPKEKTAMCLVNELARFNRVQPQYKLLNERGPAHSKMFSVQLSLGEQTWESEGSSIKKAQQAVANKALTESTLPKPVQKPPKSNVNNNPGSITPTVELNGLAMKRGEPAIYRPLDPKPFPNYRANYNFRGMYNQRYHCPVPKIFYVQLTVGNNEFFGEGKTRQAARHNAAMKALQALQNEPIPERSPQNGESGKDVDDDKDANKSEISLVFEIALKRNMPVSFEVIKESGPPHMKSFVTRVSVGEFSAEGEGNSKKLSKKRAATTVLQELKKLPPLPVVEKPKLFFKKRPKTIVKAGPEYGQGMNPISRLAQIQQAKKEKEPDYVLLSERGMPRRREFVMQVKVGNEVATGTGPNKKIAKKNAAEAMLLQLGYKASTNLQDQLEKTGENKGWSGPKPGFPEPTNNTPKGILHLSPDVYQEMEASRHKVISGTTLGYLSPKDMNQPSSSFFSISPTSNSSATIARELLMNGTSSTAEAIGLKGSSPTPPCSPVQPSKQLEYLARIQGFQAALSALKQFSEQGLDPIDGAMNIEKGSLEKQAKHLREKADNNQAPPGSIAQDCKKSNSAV
UniProt Q76I76: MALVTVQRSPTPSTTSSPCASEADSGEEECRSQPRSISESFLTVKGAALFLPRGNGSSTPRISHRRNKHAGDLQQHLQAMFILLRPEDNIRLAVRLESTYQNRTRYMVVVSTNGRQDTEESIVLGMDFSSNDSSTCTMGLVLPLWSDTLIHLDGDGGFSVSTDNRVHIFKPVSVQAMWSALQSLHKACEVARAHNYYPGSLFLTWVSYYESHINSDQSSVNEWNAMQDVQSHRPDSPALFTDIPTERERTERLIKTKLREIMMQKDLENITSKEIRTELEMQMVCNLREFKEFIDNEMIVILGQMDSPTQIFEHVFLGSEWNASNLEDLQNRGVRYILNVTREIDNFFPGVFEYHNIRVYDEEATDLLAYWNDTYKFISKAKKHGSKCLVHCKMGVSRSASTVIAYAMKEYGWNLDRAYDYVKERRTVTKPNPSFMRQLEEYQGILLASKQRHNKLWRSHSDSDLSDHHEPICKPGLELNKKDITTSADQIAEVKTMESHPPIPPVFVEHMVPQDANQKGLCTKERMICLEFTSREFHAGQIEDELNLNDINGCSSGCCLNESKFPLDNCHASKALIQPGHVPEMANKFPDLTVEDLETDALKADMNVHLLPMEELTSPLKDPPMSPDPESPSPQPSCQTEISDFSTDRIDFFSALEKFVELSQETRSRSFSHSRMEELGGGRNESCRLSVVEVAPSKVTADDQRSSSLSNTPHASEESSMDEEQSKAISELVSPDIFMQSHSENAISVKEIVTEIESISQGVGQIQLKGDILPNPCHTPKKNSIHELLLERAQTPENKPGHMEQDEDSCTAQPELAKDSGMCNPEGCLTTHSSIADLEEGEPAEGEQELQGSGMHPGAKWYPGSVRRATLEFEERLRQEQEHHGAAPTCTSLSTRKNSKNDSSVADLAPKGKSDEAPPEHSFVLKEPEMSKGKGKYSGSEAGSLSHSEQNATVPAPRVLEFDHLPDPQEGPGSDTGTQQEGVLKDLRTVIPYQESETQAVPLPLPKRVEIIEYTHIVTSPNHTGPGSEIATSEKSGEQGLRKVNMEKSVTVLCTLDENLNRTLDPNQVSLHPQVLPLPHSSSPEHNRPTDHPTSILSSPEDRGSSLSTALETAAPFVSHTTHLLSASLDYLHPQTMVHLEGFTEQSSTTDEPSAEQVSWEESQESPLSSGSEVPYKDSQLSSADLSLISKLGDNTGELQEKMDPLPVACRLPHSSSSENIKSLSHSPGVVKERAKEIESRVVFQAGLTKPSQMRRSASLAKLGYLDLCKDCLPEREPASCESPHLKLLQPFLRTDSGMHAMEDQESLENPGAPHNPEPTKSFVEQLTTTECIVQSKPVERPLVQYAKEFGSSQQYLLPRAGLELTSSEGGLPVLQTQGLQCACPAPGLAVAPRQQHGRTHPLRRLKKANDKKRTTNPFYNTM
UniProt P42224: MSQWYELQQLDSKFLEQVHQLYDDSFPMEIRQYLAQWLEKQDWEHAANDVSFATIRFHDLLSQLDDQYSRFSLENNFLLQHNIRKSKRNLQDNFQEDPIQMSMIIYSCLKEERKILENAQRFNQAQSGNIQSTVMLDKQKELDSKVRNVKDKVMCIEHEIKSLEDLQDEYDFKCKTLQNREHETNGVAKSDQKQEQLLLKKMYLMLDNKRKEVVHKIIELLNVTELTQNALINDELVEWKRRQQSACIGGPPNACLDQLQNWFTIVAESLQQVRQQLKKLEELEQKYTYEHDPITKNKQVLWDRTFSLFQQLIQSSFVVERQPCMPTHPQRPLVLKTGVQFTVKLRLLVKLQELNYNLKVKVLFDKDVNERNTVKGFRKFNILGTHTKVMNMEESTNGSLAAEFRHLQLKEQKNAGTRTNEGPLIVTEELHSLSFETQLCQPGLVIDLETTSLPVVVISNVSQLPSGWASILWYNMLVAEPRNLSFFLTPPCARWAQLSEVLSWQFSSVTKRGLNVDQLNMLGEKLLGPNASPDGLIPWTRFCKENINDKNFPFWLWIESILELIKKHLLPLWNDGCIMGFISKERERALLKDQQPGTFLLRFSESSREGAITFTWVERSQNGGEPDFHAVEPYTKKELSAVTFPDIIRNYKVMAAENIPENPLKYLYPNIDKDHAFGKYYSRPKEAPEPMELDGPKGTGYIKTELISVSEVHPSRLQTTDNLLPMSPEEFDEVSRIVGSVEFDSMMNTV
UniProt Q9NYA1, whole entry, looked up: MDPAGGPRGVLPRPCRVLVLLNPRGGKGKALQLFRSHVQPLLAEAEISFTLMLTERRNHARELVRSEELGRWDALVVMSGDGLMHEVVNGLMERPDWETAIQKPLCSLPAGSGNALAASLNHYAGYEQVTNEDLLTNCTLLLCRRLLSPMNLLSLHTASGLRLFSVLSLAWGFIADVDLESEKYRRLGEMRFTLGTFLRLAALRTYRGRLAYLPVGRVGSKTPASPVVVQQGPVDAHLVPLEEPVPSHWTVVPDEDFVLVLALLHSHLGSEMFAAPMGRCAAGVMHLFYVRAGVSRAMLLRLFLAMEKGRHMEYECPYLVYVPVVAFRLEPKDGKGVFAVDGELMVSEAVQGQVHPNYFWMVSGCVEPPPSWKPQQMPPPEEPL
UniProt Q5W111: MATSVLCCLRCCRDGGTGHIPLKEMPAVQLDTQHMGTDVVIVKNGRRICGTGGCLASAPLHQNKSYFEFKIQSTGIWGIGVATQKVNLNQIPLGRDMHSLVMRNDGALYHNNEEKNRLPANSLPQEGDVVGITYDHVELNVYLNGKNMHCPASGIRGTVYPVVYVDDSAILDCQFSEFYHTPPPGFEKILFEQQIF
UniProt P09132: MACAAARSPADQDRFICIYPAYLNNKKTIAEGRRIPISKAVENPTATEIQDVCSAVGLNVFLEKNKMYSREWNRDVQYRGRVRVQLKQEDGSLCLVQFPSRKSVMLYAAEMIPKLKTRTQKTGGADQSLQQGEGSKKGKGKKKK
UniProt Q9BXP5: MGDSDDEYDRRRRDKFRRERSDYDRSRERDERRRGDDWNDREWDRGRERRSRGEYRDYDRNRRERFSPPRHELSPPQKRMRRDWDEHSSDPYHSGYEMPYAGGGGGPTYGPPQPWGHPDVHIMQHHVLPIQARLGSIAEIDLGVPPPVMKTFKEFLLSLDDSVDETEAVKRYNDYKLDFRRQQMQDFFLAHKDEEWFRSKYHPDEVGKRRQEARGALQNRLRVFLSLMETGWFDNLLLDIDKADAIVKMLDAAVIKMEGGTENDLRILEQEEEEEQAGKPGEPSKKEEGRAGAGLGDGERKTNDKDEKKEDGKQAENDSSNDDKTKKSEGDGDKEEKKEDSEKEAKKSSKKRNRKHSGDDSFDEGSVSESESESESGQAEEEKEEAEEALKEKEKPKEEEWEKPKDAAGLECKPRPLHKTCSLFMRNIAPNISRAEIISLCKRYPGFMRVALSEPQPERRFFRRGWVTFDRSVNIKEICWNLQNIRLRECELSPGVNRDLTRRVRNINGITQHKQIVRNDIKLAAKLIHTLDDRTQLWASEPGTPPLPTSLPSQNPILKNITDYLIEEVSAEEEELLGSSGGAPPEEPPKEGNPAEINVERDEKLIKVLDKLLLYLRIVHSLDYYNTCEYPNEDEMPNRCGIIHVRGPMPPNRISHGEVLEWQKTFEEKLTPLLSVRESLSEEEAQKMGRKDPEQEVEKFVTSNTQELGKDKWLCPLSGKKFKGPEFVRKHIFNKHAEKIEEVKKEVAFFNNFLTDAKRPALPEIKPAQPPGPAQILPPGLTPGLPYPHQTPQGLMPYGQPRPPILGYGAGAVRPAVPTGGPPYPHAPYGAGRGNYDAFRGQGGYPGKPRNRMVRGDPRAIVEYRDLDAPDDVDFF

Tests used:
Assay in all cases: log2 fold change, soluble protein after heating vs DMSO (PISA); higher = thermal stabilisation; K562 cells, 10 uM, 30 min; active = over 0.2 and 3.5 SD of the protein, either way, in both replicates (recomputed)
[1] = compound: CS(=O)(=O)c1ccc(-c2cnc(N)c(C(=O)Nc3ccccc3)n2)cc1
How it was run: (§1)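 K562 cells at 2×10^6 cells/mL were given 10 μM compound for 30 min. Aliquots then went through 3 min of heating across 48°C-58°C, were pooled, and were extracted in PBS with 0.5% NP-40 at 4°C, and the supernatant after 21,000xg for 90 min was quantified by TMTpro 16plex LC-MS/MS with channel sums equalised. Thermal stability relative to control samples, from duplicates, is given as log2 fold change.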

crizotinib = compound: C[C@@H](Oc1cc(-c2cnn(C3CCNCC3)c2)cnc1N)c1c(Cl)ccc(F)c1Cl [crizotinib]
How it was run: as §1

[2] = compound: C[C@@H]1COCCN1C2=NC(=NC(=C2)C3(CC3)S(=O)(=O)C)C4=C5C=CNC5=CC=C4
How it was run: as §1

[3] = compound: C[C@H](C1=CC=C(C=C1)C(=O)NC2=C3C=CNC3=NC=C2)N
How it was run: as §1

duvelisib = compound: C[C@H](Nc1ncnc2nc[nH]c12)c1cc2cccc(Cl)c2c(=O)n1-c1ccccc1 [duvelisib]
How it was run: as §1

gandotinib = compound: Cc1cc(Nc2cc(CN3CCOCC3)c3nc(C)c(Cc4ccc(Cl)cc4F)n3n2)n[nH]1 [gandotinib]
How it was run: as §1

tozasertib = compound: Cc1cc(Nc2cc(N3CCN(C)CC3)nc(Sc3ccc(NC(=O)C4CC4)cc3)n2)n[nH]1 [tozasertib]
How it was run: as §1

[4] = compound: Cc1cc(SCc2sc(-c3ccc(C(F)(F)F)cc3)nc2C)ccc1OCC(=O)O
How it was run: as §1

doramapimod = compound: Cc1ccc(-n2nc(C(C)(C)C)cc2NC(=O)Nc2ccc(OCCN3CCOCC3)c3ccccc23)cc1 [doramapimod]
How it was run: as §1

ispinesib = compound: Cc1ccc(C(=O)N(CCCN)[C@@H](c2nc3cc(Cl)ccc3c(=O)n2Cc2ccccc2)C(C)C)cc1 [ispinesib]
How it was run: as §1

Measured: log2 fold change

SSNA1 (UniProt O43805)
inactive: [1] -0.071 | crizotinib 0.015 | [2] 0.056 | [3] -0.03 | duvelisib 0.012 | gandotinib -0.157 | tozasertib 0.017 | [4] -0.102 | doramapimod -0.007 | ispinesib 0.108

SSU72 (UniProt Q9NP77)
inactive: [1] -0.03 | crizotinib -0.239 | [2] 0.007 | [3] 0.042 | duvelisib 0.097 | gandotinib -0.079 | tozasertib 0.169 | [4] 0.117 | doramapimod -0.034

SPTB isoform 2 (UniProt P11277)
inactive: [1] 0.23 | crizotinib -0.056 | [2] -0.126 | [3] 0.179 | duvelisib -0.026 | gandotinib 0.008 | tozasertib 0.019 | [4] 0.212 | doramapimod 0.081 | ispinesib -0.283

STAU2 (UniProt Q9NUL3)
inactive: [1] -0.073 | crizotinib -0.238 | [2] -0.168 | [3] 0.407 | duvelisib 0.253 | gandotinib 0.262 | tozasertib -0.005 | [4] 0.031 | doramapimod 0.122

SSH2 (UniProt Q76I76)
inactive: [1] -0.064

SPATA5L1 (UniProt Q9BVQ7)
inactive: [1] 0.022 | crizotinib 0.021 | [2] 0.006 | [3] 0.006 | duvelisib 0.028 | gandotinib 0.028 | tozasertib -0.007 | [4] -0.041 | doramapimod 0.009 | ispinesib -0.004

SRPK2 isoform 2 (UniProt P78362)
inactive: [1] -0.042 | crizotinib 0.044 | [2] -0.559 | [3] 0.43 | duvelisib -0.119 | gandotinib 0.248 | tozasertib -0.002 | [4] 0.071 | doramapimod 0.257 | ispinesib -0.246

SPTLC2 (UniProt O15270)
inactive: [1] 0.048 | crizotinib 0.066 | [2] 0.022 | [3] -0.066 | duvelisib 0.091 | gandotinib 0.055 | tozasertib -0.009 | [4] 0 | doramapimod 0.043 | ispinesib -0.045

SPIRE2 (UniProt Q8WWL2)
inactive: [1] 0.076 | crizotinib 0.286 | [2] 0.351 | [3] -0.086 | duvelisib -0.256 | gandotinib 0.22 | tozasertib 0.131 | [4] -0.028 | doramapimod 0.12 | ispinesib -0.066

SPC25 (UniProt Q9HBM1)
inactive: [1] -0.005 | crizotinib -0.062 | [2] -0.08 | [3] -0.001 | duvelisib 0.059 | gandotinib -0.028 | tozasertib 0.071 | [4] 0.086 | doramapimod -0.008 | ispinesib -0.01

SPCS1, A0A5F9YFS9
inactive: [1] 0.031 | crizotinib -0.022 | [2] 0.046 | [3] -0.018 | duvelisib 0.068 | gandotinib -0.102 | tozasertib 0.045 | [4] 0.036 | doramapimod 0.024 | ispinesib -0.007

SPC24 (UniProt Q8NBT2)
inactive: [1] -0.01 | crizotinib -0.011 | [2] 0.143 | [3] -0.09 | duvelisib 0.024 | gandotinib -0.015 | tozasertib 0.181 | [4] 0.043 | doramapimod 0.054 | ispinesib 0.113

STAT1 (UniProt P42224)
inactive: [1] -0.003 | crizotinib -0.034 | [2] -0.218 | [3] 0.378 | duvelisib -0.045 | gandotinib 0.081 | tozasertib 0.128 | [4] 0.114 | doramapimod 0.231 | ispinesib -0.13

SPHK1 isoform 2 (UniProt Q9NYA1)
inactive: [1] 0.009 | crizotinib 0.062 | [2] 0.084 | [3] -0.064 | duvelisib 0.044 | gandotinib -0.096 | tozasertib -0.006 | [4] 0.035 | doramapimod 0.016 | ispinesib -0.016

SPRYD7 (UniProt Q5W111)
inactive: [1] -0.012 | crizotinib -0.056 | [2] 0.124 | [3] -0.061 | duvelisib -0.005 | gandotinib -0.064 | tozasertib -0.11 | [4] -0.053 | doramapimod 0.039 | ispinesib 0.043

SRP19 (UniProt P09132)
inactive: [1] 0.048 | crizotinib 0.02 | [2] -0.009 | [3] 0.147 | duvelisib -0.007 | gandotinib 0.033 | tozasertib 0.054 | [4] 0.096 | doramapimod -0.081 | ispinesib -0.097

STAG1 (UniProt Q8WVM7)
inactive: [1] 0.06 | crizotinib 0.001 | [2] -0.03 | [3] -0.084 | duvelisib 0.037 | gandotinib -0.026 | tozasertib 0.035 | [4] 0.024 | doramapimod 0.015 | ispinesib 0.019

SRGAP2 (UniProt O75044)
inactive: [1] -0.03 | crizotinib 0.024 | [2] 0.111 | [3] 0.098 | duvelisib 0.043 | gandotinib -0.104 | tozasertib 0.027 | [4] 0.064 | doramapimod 0.012 | ispinesib 0.007

SRRT (UniProt Q9BXP5)
inactive: [1] 0.084 | crizotinib -0.13 | [2] 0.217 | [3] 0.004 | duvelisib 0.08 | gandotinib -0.116 | tozasertib 0.052 | [4] 0.187 | doramapimod -0.023 | ispinesib -0.125

STAMBP (UniProt O95630)
inactive: [1] -0.004 | crizotinib 0.083 | [2] 0.066 | [3] 0.033 | duvelisib 0.05 | gandotinib -0.056 | tozasertib 0.105 | [4] 0.079 | doramapimod -0.042 | ispinesib -0.008

SPTLC1 (UniProt O15269)
inactive: [1] 0.011 | crizotinib 0.011 | [2] 0.022 | [3] 0.037 | duvelisib 0.047 | gandotinib -0.017 | tozasertib 0.006 | [4] 0.071 | doramapimod 0.056 | ispinesib -0.011

SQLE (UniProt Q14534)
inactive: [1] -0.009 | crizotinib -0.093 | [2] 0.006 | [3] -0.009 | duvelisib 0.034 | gandotinib 0.121 | tozasertib -0.006 | [4] -0.001 | doramapimod 0.029 | ispinesib 0.061

STAM (UniProt Q92783)
inactive: [1] -0.041 | crizotinib -0.041 | [2] 0.042 | [3] 0.103 | duvelisib -0.075 | gandotinib -0.009 | tozasertib 0.028 | [4] -0.08 | doramapimod 0.018 | ispinesib 0.095

STAU1 (UniProt O95793)
inactive: [1] -0.119 | crizotinib 0.022 | [2] -0.76 | [3] 0.475 | duvelisib -0.213 | gandotinib 0.333 | tozasertib 0.035 | [4] 0.066 | doramapimod 0.228 | ispinesib -0.298

SPRY4 (UniProt Q9C004)
inactive: [1] -0.043 | crizotinib 0.01 | [2] -0.014 | [3] -0.144 | duvelisib -0.008 | gandotinib -0.064 | tozasertib -0.015 | [4] 0 | doramapimod -0.005 | ispinesib -0.14

STK24 (UniProt Q9Y6E0)
inactive: [1] -0.002 | crizotinib -0.097 | [2] 0.069 | [3] 0 | duvelisib 0.034 | gandotinib -0.066 | tozasertib -0.027 | [4] -0.02 | doramapimod 0.009 | ispinesib -0.022

SRSF5 (UniProt Q13243)
inactive: [1] -0.082 | crizotinib 0.003 | [2] -0.387 | [3] -0.05 | duvelisib -0.15 | gandotinib 0.254 | tozasertib 0.109 | [4] 0.042 | doramapimod 0.204 | ispinesib -0.123

SPPL2A (UniProt Q8TCT8)
inactive: [1] 0.024 | crizotinib 0.086 | [2] 0.002 | [3] 0.06 | duvelisib 0.12 | gandotinib 0.199 | tozasertib -0.03 | [4] -0.075 | doramapimod 0.016 | ispinesib -0.027

SPHK2 isoform 5 (UniProt Q9NRA0)
inactive: [1] 0.122

SPG7 (UniProt Q9UQ90)
inactive: [1] -0.002 | crizotinib -0.014 | [2] 0.03 | [3] 0.049 | duvelisib 0.075 | gandotinib -0.068 | tozasertib -0.001 | [4] 0.028 | doramapimod -0.036 | ispinesib -0.093

SPRYD4 (UniProt Q8WW59)
inactive: [1] 0.006 | crizotinib 0.041 | [2] 0.049 | [3] 0.028 | duvelisib 0.042 | gandotinib -0.094 | tozasertib 0.003 | [4] -0.007 | doramapimod 0.015 | ispinesib 0.093

Copied from the results shown (2 entries):
SPATA5L1 (UniProt Q9BVQ7)
inactive: [1] 0.022 | crizotinib 0.021 | [2] 0.006 | [3] 0.006 | duvelisib 0.028 | gandotinib 0.028 | tozasertib -0.007 | [4] -0.041 | doramapimod 0.009 | ispinesib -0.004

SRPK2 isoform 2 (UniProt P78362)
inactive: [1] -0.042 | crizotinib 0.044 | [2] -0.559 | [3] 0.43 | duvelisib -0.119 | gandotinib 0.248 | tozasertib -0.002 | [4] 0.071 | doramapimod 0.257 | ispinesib -0.246
